# Measurements: the supplement of paper PMC6414424
# ± gives the standard deviation of the averaged measurements. Some of the results follow.
# System: APPdp1-6 iPSC-derived neurons
# Assay: pThr231Tau/total Tau ratio Z-score vs DMSO vehicle wells; higher = more pThr231Tau relative to total Tau
# Conditions: 5 µM; treatment time 5 days
row,Structure (SMILES),pThr231Tau/total Tau ratio Z-score
1,CO[C@H]1/C=C/O[C@@]2(C)Oc3c(C)c(O)c4c(O)c(c(/C=N/N5CCN(C)CC5)c(O)c4c3C2=O)NC(=O)/C(C)=C\C=C\[C@H](C)[C@H](O)[C@@H](C)[C@@H](O)[C@@H](C)[C@H](OC(C)=O)[C@@H]1C [Prestw-525],-0.481 ± 0.75
2,CC=C(C)C(=O)OC1C(OC(C)=O)C2(CO)C(O)CC3(C)C(=CCC4C5(C)CCC(OC6OC(C(=O)O)C(OC7OC(CO)C(O)C(O)C7O)C(O)C6OC6OC(CO)C(O)C(O)C6O)C(C)(CO)C5CCC43C)C2CC1(C)C (stereo unspecified) [Prestw-676],-1.27 ± 0.33
3,Cc1c(Cl)cccc1Nc1ccccc1C(=O)O [Prestw-205],-0.53 ± 0.95
4,Cc1ccc(N(CC2=NCCN2)c2cccc(O)c2)cc1 [Prestw-230],0.464 ± 0.74
5,CCc1ccc(CCOc2ccc(CC3SC(=O)NC3=O)cc2)nc1 (stereo unspecified) [Prestw-1314],0.812 ± 1.1
6,CC(C(=O)O)c1cccc(Oc2ccccc2)c1 (stereo unspecified) [Prestw-754],0.372 ± 0.92
7,O=C1OC(c2ccc(O)cc2)(c2ccc(O)cc2)c2ccccc21 [PHENOLPHTHALEIN    Therap cat:  Cathartic],-3.73 ± 0.57
8,CCCc1ncc(C[n+]2ccccc2C)c(N)n1 [Prestw-8],-0.159 ± 1.7
9,Cc1ccccc1N1CCN(C2CCc3cc(O)ccc3C2)CC1 (stereo unspecified),1.06 ± 1.2
10,Oc1cccc2cc3cccc(O)c3c(O)c12 [Prestw-1224],0.133 ± 1.9
11,C=CCc1ccc(O)c(OC)c1,-0.118 ± 0.2
12,CC(=O)OCC(=O)NCCCOc1cccc(CN2CCCCC2)c1 [Prestw-428],0.199 ± 0.72
13,CCn1cc(C(=O)O)c(=O)c2cc(F)c(N3CCNCC3)nc21 [Prestw-1401],-1.33 ± 1.2
14,CC(C)(C)C(=O)OCOC(=O)[C@@H]1N2C(=O)[C@@H](/N=C/N3CCCCCC3)[C@H]2SC1(C)C [Prestw-1053],-0.329 ± 0.57
15,CNc1ncnc2c1ncn2[C@@H]1O[C@H](CO)[C@@H](O)[C@H]1O [Prestw-338],0.698 ± 0.42
16,c1ccc2c(c1)CCCC2C1=NCCN1 (stereo unspecified) [Prestw-698],-0.347 ± 0.18
17,CCCCCN(C)CCC(O)(P(=O)(O)O)P(=O)(O)O [Prestw-1285],-0.95 ± 0.31
18,C1N2CN3CN1CN(C2)C3 [Prestw-1282],-0.614 ± 0.74
19,O=C1NCCN1c1ncc([N+](=O)[O-])s1 [Prestw-469],-0.349 ± 0.36
20,C=C(CC)C(=O)c1ccc(OCC(=O)O)c(Cl)c1Cl [Prestw-259],0.407 ± 2.3
21,"CC(C)c1nc(N(C)S(C)(=O)=O)nc(-c2ccc(F)cc2)c1/C=C/[C@@H](O)C[C@@H](O)CC(=O)O [ROSUVASTATIN CALCIUM, antihyperlipidemic]",-2.14 ± 0.49
22,Nc1ccc(S(=O)(=O)NC(=O)c2ccccc2)cc1 [Prestw-711],-0.58 ± 0.04
23,Cc1cccc(C)c1NC(=O)c1ccccc1C(=O)O,0.762 ± 0.57
24,CS(=O)(=O)c1ccc([C@@H](O)[C@@H](CF)NC(=O)C(Cl)Cl)cc1 [Prestw-955],-0.543 ± 1.2

row,Structure (SMILES),pThr231Tau/total Tau ratio Z-score
1,CCN(CC)CCCC(C)Nc1ccnc2cc(Cl)ccc12 (stereo unspecified) [Prestw-548],-0.266 ± 1.4
2,CCCCCCCCCCCCCCCC(=O)O[C@@H]1[C@@H](O)[C@@H](O)[C@@H]([C@H](NC(=O)[C@@H]2C[C@@H](CCC)CN2C)[C@H](C)Cl)O[C@@H]1SC,1.17 ± 0.089
3,Cc1cc(CC(=O)O)n(C)c1C(=O)c1ccc(Cl)cc1 [Prestw-779],-0.484 ± 0.97
4,CC(C)C[C@@H]1NC(=O)[C@H](CCCN)NC(=O)[C@H](C(C)C)NC(=O)[C@H](Cc2ccc(O)cc2)N[C@@H](CCC(=O)O)C(=O)N[C@@H](CC(N)=O)C(=O)[C@@H](Cc2ccccc2)NC(=O)[C@H](Cc2ccccc2)NC(=O)[C@@H]2CCCN2C(=O)[C@@H](Cc2ccccc2)NC1=O [TYROTHRICIN    Therap cat:  Topical antibacterial],-4.92 ± 1
5,CCC(=O)c1c(O)cc(O)cc1O [FLOPROPIONE    Therap cat:  Antispasmodic],0.864 ± 0.86
6,CC1Cc2ccccc2N1NC(=O)c1ccc(Cl)c(S(N)(=O)=O)c1 (stereo unspecified) [Prestw-220],-0.396 ± 0.26
7,Nc1ccc(S(=O)(=O)Nc2ccnn2-c2ccccc2)cc1 [Prestw-21],0.593 ± 1.6
8,O=C(NCC(O)CO)c1c(I)c(C(=O)NCC(O)CO)c(I)c(N(CCO)C(=O)CO)c1I (stereo unspecified) [Prestw-878],1.08 ± 0.16
9,CO/N=C(\C(=O)N[C@@H]1C(=O)N2C(C(=O)O)=C(COC(N)=O)CS[C@H]12)c1ccco1 [Prestw-720],0.58
10,C[C@H](O)C(=O)Nc1c(I)c(C(=O)NC(CO)CO)c(I)c(C(=O)NC(CO)CO)c1I [Prestw-871],1.03 ± 0.25
11,CC(C)CC(=O)N[C@H](C(=O)N[C@H](C(=O)N[C@@H](CC(C)C)[C@@H](O)CC(=O)N[C@@H](C)C(=O)N[C@@H](CC(C)C)[C@@H](O)CC(=O)O)C(C)C)C(C)C [Prestw-405],-0.0214 ± 0.1
12,O=c1cc[nH]c(=S)[nH]1 [2-THIOURACIL    Therap cat: thyroid depressant],1.13 ± 2.2
13,CC[C@H]1OC(=O)[C@H](C)[C@@H](O[C@H]2C[C@@](C)(OC)[C@@H](O)[C@H](C)O2)[C@H](C)[C@@H](O[C@@H]2O[C@H](C)C[C@H](N(C)C)[C@H]2O)[C@](C)(O)C[C@@H](C)[C@@H]2N[C@@H](COCCOC)O[C@H]([C@H]2C)[C@]1(C)O [Prestw-557],0.0566 ± 0.054
14,O=C1CC2(CCCC2)CC(=O)N1CCCCN1CCN(c2ncccn2)CC1 [Prestw-1283],1.31 ± 0.68
15,O=C(O)/C=C/c1ccc(Cn2ccnc2)cc1 [Prestw-979],-0.918 ± 0.11
16,CCC1=C(C)CN(C(=O)NCCc2ccc(S(=O)(=O)NC(=O)NC3CCC(C)CC3)cc2)C1=O (stereo unspecified) [Prestw-651],-0.835 ± 1.1
17,CCn1nc(C(=O)O)c(=O)c2cc3c(cc21)OCO3 [Prestw-780],0.317 ± 0.036
18,Cc1cc(/C=C/c2ccc3cc(N(C)C)ccc3[n+]2C)c(C)n1-c1ccccc1 [PYRVINIUM PAMOATE    Therap cat:  Anthelmintic (Nematodes)],-4.6 ± 0.98
19,Cc1cc(/C=C/c2ccc3cc(N(C)C)ccc3[n+]2C)c(C)n1-c1ccccc1 [Prestw-1040],-4.08 ± 0.057
20,CCCCNc1ccc(C(=O)OCCOCCOCCOCCOCCOCCOCCOCCOCCOC)cc1 [Prestw-12],0.0131 ± 0.96
21,COCCOC(=O)C1=C(C)NC(C)=C(C(=O)OC/C=C/c2ccccc2)C1c1cccc([N+](=O)[O-])c1 (stereo unspecified) [Prestw-1376],0.615 ± 0.28
22,CN(C)CCOc1ccc(/C(=C(/CCCl)c2ccccc2)c2ccccc2)cc1 [Prestw-1197],0.501 ± 0.84
23,CCN1CCN(C(=O)N[C@@H](C(=O)N[C@@H]2C(=O)N3C(C(=O)O)=C(CSc4nnnn4C)CS[C@H]23)c2ccc(O)cc2)C(=O)C1=O [Prestw-327],2.21 ± 1.2
24,C=C1/C(=C\C=C2/CCC[C@]3(C)[C@@H]([C@H](C)/C=C/[C@@H](O)C4CC4)CC[C@@H]23)C[C@@H](O)C[C@@H]1O [Prestw-1257],0.564 ± 0.5

# A section taken from the entries so far:
row,Structure (SMILES),pThr231Tau/total Tau ratio Z-score
1,CCN(CC)CCCC(C)Nc1ccnc2cc(Cl)ccc12 (stereo unspecified) [Prestw-548],-0.266 ± 1.4
2,CCCCCCCCCCCCCCCC(=O)O[C@@H]1[C@@H](O)[C@@H](O)[C@@H]([C@H](NC(=O)[C@@H]2C[C@@H](CCC)CN2C)[C@H](C)Cl)O[C@@H]1SC,1.17 ± 0.089
3,Cc1cc(CC(=O)O)n(C)c1C(=O)c1ccc(Cl)cc1 [Prestw-779],-0.484 ± 0.97
4,CC(C)C[C@@H]1NC(=O)[C@H](CCCN)NC(=O)[C@H](C(C)C)NC(=O)[C@H](Cc2ccc(O)cc2)N[C@@H](CCC(=O)O)C(=O)N[C@@H](CC(N)=O)C(=O)[C@@H](Cc2ccccc2)NC(=O)[C@H](Cc2ccccc2)NC(=O)[C@@H]2CCCN2C(=O)[C@@H](Cc2ccccc2)NC1=O [TYROTHRICIN    Therap cat:  Topical antibacterial],-4.92 ± 1
5,CCC(=O)c1c(O)cc(O)cc1O [FLOPROPIONE    Therap cat:  Antispasmodic],0.864 ± 0.86

# The results go on.

row,Structure (SMILES),pThr231Tau/total Tau ratio Z-score
1,Cc1ccc(Cl)c(Nc2ccccc2C(=O)O)c1Cl [Prestw-206],0.562 ± 0.14
2,O=C(NCCO[N+](=O)[O-])c1cccnc1 [Prestw-106],-0.176 ± 0.49
3,COC(=O)Nc1nc2ccc(SC(C)C)cc2[nH]1 [Prestw-1080],-4.58 ± 1.3
4,CC(C(=O)O)c1ccc(N2Cc3ccccc3C2=O)cc1 (stereo unspecified) [Prestw-836],-0.313 ± 1.6
5,CO[C@@]12[C@H](COC(N)=O)C3=C(C(=O)C(C)=C(N)C3=O)N1C[C@@H]1N[C@@H]12,-0.336 ± 0.76
6,Oc1ccc(OCc2ccccc2)cc1 [Prestw-912],-1.3 ± 0.71
7,C[C@H]1C[C@H]2[C@@H]3CCC4=CC(=O)C=C[C@]4(C)[C@@]3(F)[C@@H](O)C[C@]2(C)[C@@]1(O)C(=O)CO [Prestw-362],-0.0793 ± 0.043
8,Cc1nnc(NS(=O)(=O)c2ccc(N)cc2)s1 [Prestw-742],-0.348 ± 0.62
9,"CCN1CCN(c2cc3c(cc2F)c(=O)c(C(=O)O)cn3C2CC2)CC1 [ENROFLOXACIN, antibacterial]",0.726 ± 0.44
10,CCN1CCC[C@H]1CNC(=O)c1c(OC)ccc(Br)c1OC [Prestw-971],0.14 ± 0.95
11,"COc1cc(NS(C)(=O)=O)ccc1Nc1c2ccccc2nc2ccccc12 [AMSACRINE, antineoplastic, immune suppressive]",-4.17 ± 1.1
12,CC1CC(OC(=O)C(O)c2ccccc2)CC(C)(C)N1C (stereo unspecified) [Prestw-794],1.65 ± 1.7
13,CC1CC(OC(=O)C(O)c2ccccc2)CC(C)(C)N1C (stereo unspecified),0.387 ± 0.34
14,"O=C1c2c(O)cccc2C(C2OC(CO)C(O)C(O)C2O)c2cc(CO)cc(O)c21 (stereo unspecified) [ALOIN    cathartic, laxative ex aloe    J Chem Soc 1932:2573]",0.671 ± 0.27
15,Cc1cnc(NC(=O)C2=C(O)c3ccccc3S(=O)(=O)N2C)s1 [Prestw-369],-0.928 ± 0.078
16,CC1(C)O[C@@H]2C[C@H]3[C@@H]4CCC5=CC(=O)C=C[C@]5(C)[C@@]4(F)[C@@H](O)C[C@]3(C)[C@]2(C(=O)CO)O1 [TRIAMCINOLONE ACETONIDE    Therap cat: antiinflammation],0.971 ± 1.2
17,"OC1(c2ccc(Cl)c(C(F)(F)F)c2)CCN(CCCC(c2ccc(F)cc2)c2ccc(F)cc2)CC1 [PENFLURIDOL, antipsychotic]",-0.486 ± 0.96
18,O=C(O)COC(=O)Cc1ccccc1Nc1c(Cl)cccc1Cl [Prestw-175],-0.774 ± 1
19,O=c1oc2ccccc2c(O)c1Cc1c(O)c2ccccc2oc1=O [Prestw-785],0.76 ± 1.5
20,CN1CCN(CCCN2c3ccccc3Sc3ccc(Cl)cc32)CC1 [Prestw-399],-1.26 ± 1.2
21,Nc1nc(=S)c2[nH]cnc2[nH]1,0.0544 ± 1.1
22,CN1CCN(c2c(F)cc3c(=O)c(C(=O)O)cn(CCF)c3c2F)CC1 [Prestw-1414],-1.05 ± 0.74
23,C[C@H](CCC(=O)O)[C@H]1CC[C@H]2[C@@H]3[C@H](O)C[C@@H]4C[C@H](O)CC[C@]4(C)[C@H]3CC[C@]12C [Prestw-285],-0.569 ± 0.17
